# Primary screen of a compound library

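Viability assay of Plasmodium falciparum sporozoites; the read-out is not stated. The concentration is filed as 10 mM, unlikely as a test dose, so the dose is not known. Direction is inferred from retests: higher values go with lower viability. Strong results were mostly tested again. About 34,000 compounds were tested under these conditions; 0.84% (about 280) showed 50% or more at least once.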

Results are given as percent effect.
How 0% and 100% were set is not recorded. Most values in the screen are low, and negative values occur.
This is an unselected part of the compounds tested.
Two or more numbers in one place are separate tests of the same structure; such repeats can differ widely.

Result for Cc1cc(=O)n2nc(Oc3ccc(C#N)cc3Cl)sc2n1 was 20.95%. For CC(C)Cc1cc(NC(=O)N2CCC(Oc3cccnc3)C2)n(C)n1 (stereo not shown) the result was -9.829%. For CNC(=O)N1CCC2(CC1)c1ncc(-c3cccc(F)c3)n1CCN2C.O=C(O)C(F)(F)F the result was -2.997%. CCn1cnnc1CNC(=O)c1ccc(Cl)cc1F gave -11.93%. For Cc1nccn1C1CCCN(C(=O)c2ccc3c(c2)OCCCO3)C1 (stereo not shown) the result was 11.84%. For NCC1(c2cccc(C(F)(F)F)c2)CCCC1 the result was 1.302%. Result for [H][C@@]12OCCN(C(=O)c3ccccc3F)[C@@]1([H])CC[C@H]2OCCN(C)C was -2.544%.

Result for Cc1ccnc(C2CN(Cc3ccc(-c4ccccc4C(=O)O)o3)C2)n1 was 6.713%. With COc1ccc(CN(C)CC2(O)CCN(C(=O)c3cccn3C)C2)cc1 (stereo not shown) the screen gave -2.014%. For CN(C)c1ncc(-c2ccc(NC(=O)[C@@H]3CCCCN3)cc2)cn1 the result was -1.609%. CC(C)N1CCN(C)CC(Cc2cc(N(C)C)ncn2)C1 (stereo not shown) read 2.091%. With O=C(O)C(F)(F)F.[H][C@@]12CN(Cc3ccsc3)CCO[C@]1([H])CN(C(=O)C1CC(F)(F)C1)C2 the screen gave 9.635%. With Cc1ncc(CN2CCC(c3nc(O)cc(-c4ccsc4)n3)CC2)cn1 the screen gave 1.55%. CCCC(O)CN1CCC(=O)N(CC)Cc2cc3c(cc21)OCO3 (stereo not shown) gave -28.88%.

With Cc1n[nH]c(C2CN(CC(=O)NCCc3ccsc3)CCO2)n1 (stereo not shown) the screen gave -1.063%. Result for CCCN(CCO)C(=O)C1CCC(=O)N(CCc2ccc(Cl)cc2)C1 (stereo not shown) was -17.47%. With O=C(NCc1ccon1)Nc1cc(F)ccc1N1CCCCC1 the screen gave -13.58%. With CC(C)(C)OC(=O)N1CCn2c(nnc2C2CCCNC2)C1 (stereo not shown) the screen gave 10.16%. Result for CCc1c(O)nc(SC(C)CC)n(-c2ccccc2)c1=O (stereo not shown) was 6.02%. For Cc1cc(C)n(CC2CCCN2C(=O)c2c[nH]c(=O)c(Cl)c2)n1 (stereo not shown) the result was 10.47%. For O=C(Cc1ccon1)N1CCN(c2ccncc2Cl)CC1 the result was -2.216%.

For CN(c1ccc2ccccc2c1)S(=O)(=O)c1cc(C(=O)O)cs1 the result was 0.9858%. With O=C(O)C(F)(F)F.[H][C@@]12CN(C(=O)c3ccc(O)cc3)C[C@]1([H])OCCN2c1ncccn1 the screen gave 10.29%. COc1ncccc1CN1CCN(c2noc(C(C)C)n2)CC1 gave -24.31% and -24.85%. For CCOCc1nc(N2CCOCC2)sc1C(=O)NCCCc1ccco1 the result was 3.133%. O=S(=O)(CCN1CCc2c(ncn2C2CC2)C1)c1ccccc1 gave 8.347% and -17.94% and -27.67%. With O=C(O)C(F)(F)F.O=C(O)C(F)(F)F.[H][C@@]12C[C@@H](Oc3cncnc3)CN1CCN(c1ncc(F)cn1)C2 the screen gave 7.962%. With CC[S+]([O-])CCc1nc(CC(C)C)nn1-c1ccc2c(c1)OCCO2 (stereo not shown) the screen gave 61.59% and 54.31%.

Cc1cc(C(F)(F)F)nc(C2CCN(C(=O)CO)CC2)n1 read -4.597%. For Cc1c(NC(C)C(C)C)cccc1C(=O)NCc1cnn(C)c1 (stereo not shown) the result was 5.257%. With COc1ccc(-n2ccc(C(=O)NCCN3CCCCC3)n2)cc1 the screen gave -0.4554%. With Cn1cc(CN2CCOC(Cc3cccc(F)c3)C2)cn1 (stereo not shown) the screen gave -0.2595%. Result for CN(C1CCN(c2ccccn2)CC1)S(=O)(=O)c1ccccc1F was -15.54%. For Cc1cccc(CC(=O)N2CCCCC2CN)c1.Cl (stereo not shown) the result was -3.657%. O=C(NC1CCN(C2CC2)CC1)N1CCN(c2cnccn2)CC1 read 4.706%.

Cc1nn(C)c(N(C)C)c1CNCc1ccc(OCCN(C)C)cc1 read 20.97%. Result for CCN(CCn1cccn1)Cc1nc(-c2ccccc2F)oc1C was -60.25%. With C=C(C)CN(Cc1cccc(O)c1)C1CCC(O)CC1 (stereo not shown) the screen gave 7.151%. For COc1cccc(CNCCc2cc(F)cc3c2OCOC3)c1 the result was -6.495%. For CC1CCN(CCCNC(=O)NC(C)c2nncn2C)CC1 (stereo not shown) the result was -15.5% and -32.01% and 2.721%. Cc1ccc(S(=O)(=O)NCC(C)C#N)cc1Br (stereo not shown) gave -10.66%. CSCC[C@H](NC(=O)Cn1ccc2c(Cl)cccc21)C(=O)O gave -7.018%.

For COc1ccccc1C(O)CNC(=O)Nc1cccnc1OC (stereo not shown) the result was 1.873%.

4 of the entries, repeated:

SMILES	effect
O=C(NCc1ccon1)Nc1cc(F)ccc1N1CCCCC1	-13.58
Cc1c(NC(C)C(C)C)cccc1C(=O)NCc1cnn(C)c1 (stereo not shown)	5.257
CCOCc1nc(N2CCOCC2)sc1C(=O)NCCCc1ccco1	3.133
O=C(Cc1ccon1)N1CCN(c2ccncc2Cl)CC1	-2.216

Measurements from “University of Dundee, Small-Polar-MMV Screening Library” (2021), ChEMBL document CHEMBL3988442.